Experimental data taken from PubChem BioAssay AID2551 (National Center for Advancing Translational Sciences (NCATS), 2010).
Where “and” joins values, the source holds several entries; their conditions need not be identical. Equal entries are not always repeated. In all, about 310,000 compounds went through this assay and about 17,000 (5.5%) were called active. The shares of active, inactive and inconclusive entries below differ from those in the screen. Calls come from the whole dose curve; as a rule, active = well fitted inhibition curve with a large enough effect; inconclusive = small, poorly fitted or top-dose-only effect, or effect the other way; inactive = no such curve, though single readings can be large or run the other way. Potencies of inconclusive entries are doubtful fits and often do not repeat. More than one record can exist for a structure, and the calls need not agree.

Protein sequences, listed by entry. Tags and fused reporters are not part of them. Lines headed by an entry give the natural chain unless they say otherwise; changes in a name come on top.
UniProt P51450: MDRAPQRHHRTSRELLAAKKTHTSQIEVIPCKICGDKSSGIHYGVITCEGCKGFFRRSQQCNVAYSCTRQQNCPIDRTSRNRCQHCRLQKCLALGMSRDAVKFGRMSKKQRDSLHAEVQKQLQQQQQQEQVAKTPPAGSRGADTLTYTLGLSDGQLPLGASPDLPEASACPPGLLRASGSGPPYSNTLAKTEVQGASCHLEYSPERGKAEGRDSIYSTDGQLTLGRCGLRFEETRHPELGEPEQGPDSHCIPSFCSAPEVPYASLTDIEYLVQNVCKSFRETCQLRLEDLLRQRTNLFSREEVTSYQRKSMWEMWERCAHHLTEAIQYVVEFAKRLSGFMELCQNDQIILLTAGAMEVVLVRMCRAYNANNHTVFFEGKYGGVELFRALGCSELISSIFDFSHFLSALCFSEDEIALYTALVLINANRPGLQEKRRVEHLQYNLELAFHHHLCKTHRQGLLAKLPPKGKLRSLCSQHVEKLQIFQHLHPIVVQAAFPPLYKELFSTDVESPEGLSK

biological target: Nuclear receptor ROR-gamma (Mus musculus) (UniProt P51450); assay: qHTS for inhibitors of ROR gamma transcriptional activity; conditions: Drosophila S2 Gal4-RORgamma UAS-luciferase reporter, 20 h; activity change, negative = inhibition: at 53.6 µM (top of the series); note: nearly all actives have a fitted effect of over 60% in size
Summary of the method: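 Read-out: Photinus luciferase luminescence; inhibitors lower reporter signal. Insect Schneider cells with Gal4-ROR gamma fusion under metallothionein promoter, UAS reporter; 700 uM final copper sulfate induction, 20 hr, ambient temperature.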
% is set by controls: 0 for no effect and ±100 for the full control effect; potency is the fitted concentration of half-maximal effect.

Row | SMILES | Potency | activity change, negative = inhibition
1 | CCOP(=O)(OCC)C(=Cc1cc(C(C)(C)C)c(O)c(C(C)(C)C)c1)P(=O)(OCC)OCC | inconclusive: 12.6 µM [activator, single point] | 
2 | Nc1c(C(=O)NCc2ccco2)c2nc3ccccc3nc2n1Cc1ccccc1 | inconclusive: 22.4 µM [activator, partial curve, poor fit] | 
3 | CC(C)(C)C(=O)C1C(=O)c2ccccc2C1=O | inconclusive: 14.1 µM [inhibitor, partial curve, poor fit] | 
4 | CCC(C=C[C@@H]1OC(=O)C=C[C@H]1C)=C[C@H](C)CC=CC(C)=C[C@@H](C)C(=O)[C@@H](C)[C@H](O)[C@@H](C)CC(C)=CC(=O)O | inconclusive: 0.794 µM [inhibitor, single point] | 
5 | N/C(=N\N=C/c1ccc(-c2ccc(O)c(C(=O)O)c2)o1)N[N+](=O)[O-] |  | inactive: 2.93%
6 | C=C1[C@@H](O)C2C=CC[C@H](C)C(=O)[C@@](C)(O)C=C[C@@H](OC(C)=O)[C@@]23C(=O)N[C@H](Cc2ccccc2)[C@@H]3[C@@H]1C (some centres not stated) | inconclusive: 7.08 µM [inhibitor, full curve] | 
7 | COc1ccc(CCNC(=O)C(=O)NCC2OCCN2S(=O)(=O)c2ccc(Cl)cc2)cc1 (configuration not stated) | inconclusive: 35.5 µM [activator, single point] | 
8 | CCOc1ccc(C2CC(c3c(O)n(C)c(=O)n(C)c3=O)=NN2)cc1 (configuration not stated) | inconclusive: 14.1 µM [inhibitor, partial curve] | 
9 | CCOc1ccc(N2C(=O)/C(=C\c3cccs3)C(=O)NC2=S)cc1 |  | inactive: -30.9%
10 | CC(C)c1cccc(C(C)C)c1OCCn1ccnc1 | active: 22.4 µM | 
11 | CCc1ccc(N2NC(=O)/C(=C/C=C/c3ccco3)C2=O)cc1 | inconclusive: 0.501 µM [inhibitor, full curve, poor fit] | 
12 | CC(C)(C)c1ccc(OC(=O)N2CCCCC2)cc1 | inconclusive: 15.8 µM [activator, partial curve] | 
13 | O=c1[nH]c(=S)n(-c2ccc(Cl)cc2)c(O)c1C=Nc1ccc(N2CCOCC2)cc1 | inconclusive: 5.62 µM [inhibitor, single point] | 
14 | Cc1cccc(C(=O)Nc2ccc(Cl)cc2C(=O)c2ccccc2)c1 |  | inactive: -0.4%
15 | CCN(CC)c1ccc(N=Cc2c(O)[nH]c(=O)[nH]c2=O)cc1 | inconclusive: 3.98 µM [activator, partial curve] | 
16 | Cn1c(O)c(/C=C2/C=CC=N2)c(=O)[nH]c1=O |  | inactive: 16.4%
17 | C/C=C(\C)C(=O)N[C@@H](c1ccccc1)[C@@H](O)C(=O)O[C@H]1C[C@@]2(O)[C@@H](OC(=O)c3ccccc3)C3[C@](C)(C(=O)[C@H](O)C(=C1C)C2(C)C)[C@@H](O)C[C@H]1OC[C@@]31OC(C)=O (some centres not stated) | inconclusive: 10 µM [activator, single point] | 
18 | Fc1ccc(CNCCc2c[nH]c3ccccc23)cc1 | inconclusive: 12.6 µM [inhibitor, single point] | 
19 | CN1C(=O)C(O)N=C(c2ccccc2)c2cc(Cl)ccc21 (configuration not stated) |  | inactive: -34.6%
20 | COc1ccc(C2Oc3c(I)c(OC)cc(OC)c3CC2O)cc1OC (configuration not stated) |  | inactive: 12.7%
21 | CCC(=O)OC1CCC2C3CCc4cc(O)ccc4C3CC[C@]12C (some centres not stated) | inconclusive: 25.1 µM [inhibitor, single point] | 
22 | CC(=O)CC(c1ccccc1)c1c(O)c2ccc(O)cc2oc1=O (configuration not stated) |  | inactive: -12.2%
23 | CCCCc1nc(N2CCNCC2)c(C#N)c2c1CSC(C)(C)C2 | inconclusive: 14.1 µM [activator, single point] | 
24 | COC(=O)c1c(C)n(Cc2ccccc2)c2ccc(O)cc12 |  | inactive: 20%

Row | SMILES | Potency | activity change, negative = inhibition
25 | CCOc1ccc(NC(=O)C(=S)NC2CCCCC2)cc1 | inconclusive: 3.55 µM [activator, full curve] | 
26 | CCSC(=O)Cl |  | inactive: -7.23%
27 | CCN1CCN(CC(c2ccccc2)c2ccccc2)CC1 | active: 20 µM | 
28 | NC12CN3CN(CN(C3)C1)C2 (tested in a mixture with another compound) |  | inactive: 15.7%
29 | Cc1c(C(=O)c2ccccc2)c2ccccc2n1C |  | inactive: 9.35%
30 | CC(=O)Nc1ccccc1C(=O)OCc1ccc(C(=O)c2ccccc2)cc1 |  | inactive: 35.6%
31 | O=C(Cc1ccccc1)Oc1ccc(N2C(=O)C3CCCCC3C2=O)cc1 (configuration not stated) | inconclusive: 0.891 µM [activator, single point] | 
32 | Cc1c(C(=O)c2cccc3ccccc23)c2cccc3c2n1[C@@H](CN1CCOCC1)CO3 |  | inactive: -18.6%
33 | O=C1C2CCN(CC2)C1(CO)CO | inactive and active: 25.1 µM | 
34 | CCCCc1cc(=O)oc2cc(OCC(=O)N3C[C@H]4C[C@@H](C3)c3cccc(=O)n3C4)c(Cl)cc12 |  | inactive: 25.4%
35 | O=c1cc(CN2CC=C(c3ccccc3)CC2)c2c(ccc3ccccc32)o1 | active: 5.62 µM | 
36 | N#CC(C#N)=NNc1ccc(-n2ccc(C(F)(F)F)n2)cc1 | active: 5.01 µM | 
37 | COc1cc2c(cc1O)C[C@H]1c3c(cc(O)c(OC)c3-2)CCN1C |  | inactive: -0.215% [at 16.9 µM]
38 | O=C(c1cccs1)c1cn(Cc2ccccc2Cl)c2ccccc12 |  | inactive: -3.12%
39 | C=C/C(=C/C(=O)C[C@H](C)C[C@@H](C)CC[C@H](O)[C@H](C)C(=O)C[C@@H](O)[C@H](C)[C@@H](C)OC(=O)C[C@@H](O)C1=C(C)C(=O)OC1=O)CC | inconclusive: 0.501 µM [inhibitor, full curve] | 
40 | COc1ccc(C2CC(c3cccs3)=NN2c2nc(C)c(C(C)=O)s2)cc1OC (configuration not stated) | inconclusive: 12.6 µM [inhibitor, single point] | 
41 | CN[C@@H]1C[C@H](c2ccc(Cl)c(Cl)c2)c2ccccc21 | inconclusive: 31.6 µM [inhibitor, partial curve, poor fit] | 
42 | COc1cc(C=C2C(=O)NC(=O)NC2=O)ccc1O |  | inactive: -0.414%
43 | CC(C)CC(N)C1(c2ccc(Cl)cc2)CCC1 (configuration not stated) | inconclusive: 10 µM [inhibitor, partial curve] | 
44 | c1nc2nc3c(c(N4CCNCC4)n2n1)CCCC3 | inconclusive: 35.5 µM [activator, single point] | 
45 | CCOc1c(Cl)cc(CNCCc2c[nH]c3ccccc23)cc1OC | inconclusive: 35.5 µM [inhibitor, single point] | 
46 | CC12CN3CN(C1)CC(c1ccccc1)(C3)C2=O | inconclusive: 5.62 µM [activator, single point] | 
47 | N#C/C=C/C#N | inconclusive: 7.08 µM [inhibitor, partial curve, poor fit] | 
48 | O=C1NC(=O)N(Cc2ccccc2)C(=O)/C1=C\C=C\c1ccco1 | inconclusive: 5.62 µM [inhibitor, single point] | 

Row | SMILES | Potency | activity change, negative = inhibition
49 | C[C@]12CC[C@@H]3C(=CCc4cc(O)ccc43)[C@@H]1CCC2=O | inconclusive: 14.1 µM [inhibitor, partial curve, poor fit] | 
50 | C=CCBr |  | inactive: 4.86%
51 | CC1CCN(c2cc(Br)c([N+](=O)[O-])cc2F)CC1 | inconclusive: 11.2 µM [activator, single point] | 
52 | C/C(=N\N1CCCCCC1)c1c(O)n(C2CCCCC2)c(=O)[nH]c1=O |  | inactive: 15.2%
53 | CCOP(=O)(OCC)C(NS(=O)(=O)c1ccccc1)C(Cl)(Cl)Cl (configuration not stated) | inconclusive: 12.6 µM [activator, partial curve] | 
54 | CC(=O)c1cn(CCCOc2ccccc2)c2ccccc12 | inconclusive: 12.6 µM [inhibitor, partial curve, poor fit] | 
55 | O=C(CCC(=O)N1C[C@H]2C[C@@H](C1)c1cccc(=O)n1C2)NCc1cccc(C(F)(F)F)c1 |  | inactive: 5.97%
56 | C/C(CC(c1ccccc1)c1c(O)c2ccccc2oc1=O)=N\NC(N)=S (configuration not stated) | inconclusive: 28.2 µM [inhibitor, single point] | 
57 | O=C(CCN1CCN(c2ccccc2)CC1)c1ccc(Br)cc1 | active: 35.5 µM | 
58 | O=c1cc(-c2ccc(O)c(O)c2)oc2cc(O)cc(O)c12 | active: 22.4 µM | 
59 | CCCCCn1c(=O)c(C(=O)NC(C)c2ccccc2)c(O)c2ccccc21 (configuration not stated) | inconclusive: 31.6 µM [inhibitor, single point] | 
60 | Clc1ccc2c(c1)C(c1ccccc1Cl)=NCc1nnc(N3CCN(CCOc4ccccc4)CC3)n1-2 | inconclusive: 14.1 µM [activator, single point] | 
61 | Cc1cc(C)cc(C(=O)N(CCc2ccccc2)C2=CC3CCC(C2)N3C)c1 (configuration not stated) | active: 12.6 µM | 
62 | COc1ccc(C(=O)N2CCOCC2)cc1S(=O)(=O)N1CCC(C)CC1 |  | inactive: -14.8%
63 | c1ccc(OCCSc2nc3ccccc3[nH]2)cc1 | inconclusive: 3.55 µM [activator, partial curve] | 
64 | CCN(CC)CCCOC(=O)C(OC(C)C)(c1ccccc1)c1ccccc1 | inconclusive: 2.24 µM [inhibitor, partial curve] | 
65 | COc1ccccc1OCCCn1cc(C(=O)C2CC2)c2ccccc21 |  | inactive: 20.9%
66 | CC(=O)OC1C2CCC3C1(CC(O)[C@@]1(O)[C@@H](CC(O)C1(C)C)[C@]3(C)O)C[C@@]2(C)O (some centres not stated) |  | inactive: 23.2%
67 | CCC(C)n1c(O)c(C=NCC2CCCO2)c(=O)[nH]c1=S (configuration not stated) |  | inactive: -4.02%
68 | C=CCn1c(O)c(C(CC)=NCCCO)c(=O)[nH]c1=O |  | inactive: 14.9%
69 | COC(=O)C(O)(c1ccc(N(C)C(=O)OC(C)C)cc1)C(F)(F)F (configuration not stated) | inconclusive: 0.316 µM [activator, full curve] | 
70 | CSC(=Nc1ccccc1)c1c(O)n(C)c(=O)n(C)c1=O | inconclusive: 31.6 µM [activator, single point] | 
71 | COC(=O)C(O)(c1ccc(NC(=O)c2ccccc2)cc1)C(F)(F)F (configuration not stated) |  | inactive: 9.85%
72 | Cn1c(=O)cc(OCCCC(=O)N2CCC3(CC2)OCCO3)c2ccccc21 | inconclusive: 22.4 µM [inhibitor, single point] | 

Gathered by group, the entries above containing a tert-butyl group
Row | SMILES | Potency | activity change, negative = inhibition
1 | CCOP(=O)(OCC)C(=Cc1cc(C(C)(C)C)c(O)c(C(C)(C)C)c1)P(=O)(OCC)OCC | inconclusive: 12.6 µM [activator, single point] | 
3 | CC(C)(C)C(=O)C1C(=O)c2ccccc2C1=O | inconclusive: 14.1 µM [inhibitor, partial curve, poor fit] | 
12 | CC(C)(C)c1ccc(OC(=O)N2CCCCC2)cc1 | inconclusive: 15.8 µM [activator, partial curve] | 
